Results published in patent US20260092179A1, “GENETICALLY MODIFIED HOST CELLS PRODUCING VIOLACEIN, ANALOGUES, AND DERIVATIVES THEREOF” (OCTARINE BIO APS, priority 2022, published 2026).

Key:
[1] = Direct dyeing of fabrics with pigments in lipophilic in situ extractants diluted in ethanol (ΔE); details: vs undyed fabric
[2] = Direct dyeing of fabrics with purified pigments dissolved in 100% ethanol (colour coordinates, ΔE); details: dye bath 100% ethanol, room temperature, 30 minutes; for ΔE: vs undyed fabric
[3] = Direct dyeing of nylon 6,6 with deoxyviolacein Antifoam-A extract diluted in water
[4] = Bleached cotton, dye bath 90% ethanol 10% isopropyl myristate, room temperature, 30 minutes
[5] = Denim, dye bath 90% ethanol 10% isopropyl myristate, room temperature, 30 minutes
[6] = Diacetate, dye bath 90% ethanol 10% isopropyl myristate, room temperature, 30 minutes
[7] = Hemp, dye bath 90% ethanol 10% isopropyl myristate, room temperature, 30 minutes
[8] = Nylon 6,6, dye bath 90% ethanol 10% isopropyl myristate, room temperature, 30 minutes
[9] = Polyester, dye bath 90% ethanol 10% isopropyl myristate, room temperature, 30 minutes
[10] = Silk, dye bath 90% ethanol 10% isopropyl myristate, room temperature, 30 minutes
[11] = Viscose, dye bath 90% ethanol 10% isopropyl myristate, room temperature, 30 minutes
[12] = Wool, dye bath 90% ethanol 10% isopropyl myristate, room temperature, 30 minutes
[13] = nylon 6,6, extract diluted in water to approx. 1% Antifoam-A, room temperature overnight

Structure (SMILES): O=C1N=C(c2c[nH]c3ccccc23)C=C1c1c[nH]c2ccccc12 [prodeoxyviolacein]
- ΔE [1, 4]: 16.62
- ΔE [1, 5]: 19.44
- ΔE [1, 6]: 23.62
- ΔE [1, 7]: 4.41
- ΔE [1, 8]: 36.78
- ΔE [1, 9]: 16.96
- ΔE [1, 10]: 6.08
- ΔE [1, 11]: 7.23
- ΔE [1, 12]: 11.26
- L ([2]; Bleached cotton): 74.15
- a ([2]; Bleached cotton): 2.01
- b ([2]; Bleached cotton): 4.43
- ΔE ([2]; Bleached cotton): 15.86
- L ([2]; Denim): 73.29
- a ([2]; Denim): 3.33
- b ([2]; Denim): 5.2
- ΔE ([2]; Denim): 19.44
- L ([2]; Diacetate): 67.15
- a ([2]; Diacetate): 1.39
- b ([2]; Diacetate): 9.16
- ΔE ([2]; Diacetate): 21.05
- L ([2]; Hemp): 80.4
- a ([2]; Hemp): 0.87
- b ([2]; Hemp): 4.4
- ΔE ([2]; Hemp): 11.01
- L ([2]; Nylon 6,6): 61.99
- a ([2]; Nylon 6,6): 1.4
- b ([2]; Nylon 6,6): 6
- ΔE ([2]; Nylon 6,6): 27.44
- L ([2]; Polyester): 71.81
- a ([2]; Polyester): −0.85
- b ([2]; Polyester): 3.08
- ΔE ([2]; Polyester): 17.57
- L ([2]; Silk): 74.63
- a ([2]; Silk): −0.01
- b ([2]; Silk): 5.09
- ΔE ([2]; Silk): 15.89
- L ([2]; Viscose): 70.58
- a ([2]; Viscose): 1.7
- b ([2]; Viscose): 4.57
- ΔE ([2]; Viscose): 17.25
- L ([2]; Wool): 65.86
- a ([2]; Wool): −1.83
- b ([2]; Wool): 6.18
- ΔE ([2]; Wool): 18.19

Structure (SMILES): O=C1N=C(c2c[nH]c3ccc(O)cc23)C=C1c1c[nH]c2ccccc12 [proviolacein]
- ΔE [1, 4]: 18.99
- ΔE [1, 5]: 15.82
- ΔE [1, 6]: 20.07
- ΔE [1, 7]: 10.32
- ΔE [1, 8]: 35.99
- ΔE [1, 9]: 19.97
- ΔE [1, 10]: 13.00
- ΔE [1, 11]: 14.79
- ΔE [1, 12]: 13.90
- L ([2]; Bleached cotton): 77.07
- a ([2]; Bleached cotton): 3.28
- b ([2]; Bleached cotton): 2.46
- ΔE ([2]; Bleached cotton): 12.77
- L ([2]; Denim): 73.29
- a ([2]; Denim): 3.33
- b ([2]; Denim): 5.2
- ΔE ([2]; Denim): 19.44
- L ([2]; Diacetate): 70.57
- a ([2]; Diacetate): 2.52
- b ([2]; Diacetate): 5.61
- ΔE ([2]; Diacetate): 16.60
- L ([2]; Hemp): 84.21
- a ([2]; Hemp): 2.59
- b ([2]; Hemp): 3.19
- ΔE ([2]; Hemp): 7.26
- L ([2]; Nylon 6,6): 64.73
- a ([2]; Nylon 6,6): 3.29
- b ([2]; Nylon 6,6): 2.07
- ΔE ([2]; Nylon 6,6): 24.14
- L ([2]; Polyester): 74.88
- a ([2]; Polyester): −0.22
- b ([2]; Polyester): 1.66
- ΔE ([2]; Polyester): 14.28
- L ([2]; Silk): 82.02
- a ([2]; Silk): 1.68
- b ([2]; Silk): 3.73
- ΔE ([2]; Silk): 8.50
- L ([2]; Viscose): 78.01
- a ([2]; Viscose): 0.84
- b ([2]; Viscose): 7.88
- ΔE ([2]; Viscose): 10.91
- L ([2]; Wool): 70.77
- a ([2]; Wool): −0.51
- b ([2]; Wool): 5.17
- ΔE ([2]; Wool): 13.14

Structure (SMILES): O=C1NC(c2c[nH]c3ccccc23)=C/C1=C1\C(=O)Nc2ccccc21 [deoxyviolacein]
- ΔE ([1]; 66% ethanol 33% Castor oil FAME, Acrylic, room temperature 30 minutes): 25.0
- ΔE ([1]; 66% ethanol 33% Castor oil FAME, Bleached cotton, room temperature 30 minutes): 28.7
- ΔE ([1]; 66% ethanol 33% Castor oil FAME, Diacetate, room temperature 30 minutes): 41.9
- ΔE ([1]; 66% ethanol 33% Castor oil FAME, Nylon 6,6, room temperature 30 minutes): 48.7
- ΔE ([1]; 66% ethanol 33% Castor oil FAME, Polyester, room temperature 30 minutes): 36.2
- ΔE ([1]; 66% ethanol 33% Castor oil FAME, Wool, room temperature 30 minutes): 27.0
- ΔE ([1]; 66% ethanol 33% Ethyl laureate, Acrylic, room temperature 30 minutes): 22.1
- ΔE ([1]; 66% ethanol 33% Ethyl laureate, Bleached cotton, room temperature 30 minutes): 31.3
- ΔE ([1]; 66% ethanol 33% Ethyl laureate, Diacetate, room temperature 30 minutes): 51.5
- ΔE ([1]; 66% ethanol 33% Ethyl laureate, Nylon 6,6, room temperature 30 minutes): 55.6
- ΔE ([1]; 66% ethanol 33% Ethyl laureate, Polyester, room temperature 30 minutes): 28.5
- ΔE ([1]; 66% ethanol 33% Ethyl laureate, Wool, room temperature 30 minutes): 25.9
- ΔE ([1]; 66% ethanol 33% Grapeseed oil, Acrylic, room temperature 30 minutes): 18.2
- ΔE ([1]; 66% ethanol 33% Grapeseed oil, Bleached cotton, room temperature 30 minutes): 28.5
- ΔE ([1]; 66% ethanol 33% Grapeseed oil, Diacetate, room temperature 30 minutes): 55.4
- ΔE ([1]; 66% ethanol 33% Grapeseed oil, Nylon 6,6, room temperature 30 minutes): 59.9
- ΔE ([1]; 66% ethanol 33% Grapeseed oil, Polyester, room temperature 30 minutes): 24.7
- ΔE ([1]; 66% ethanol 33% Grapeseed oil, Wool, room temperature 30 minutes): 22.0
- ΔE ([1]; 66% ethanol 33% Isopropyl palmitate, Acrylic, room temperature 30 minutes): 25.9
- ΔE ([1]; 66% ethanol 33% Isopropyl palmitate, Bleached cotton, room temperature 30 minutes): 35.2
- ΔE ([1]; 66% ethanol 33% Isopropyl palmitate, Diacetate, room temperature 30 minutes): 58.7
- ΔE ([1]; 66% ethanol 33% Isopropyl palmitate, Nylon 6,6, room temperature 30 minutes): 61.9
- ΔE ([1]; 66% ethanol 33% Isopropyl palmitate, Polyester, room temperature 30 minutes): 29.1
- ΔE ([1]; 66% ethanol 33% Isopropyl palmitate, Wool, room temperature 30 minutes): 27.1
- ΔE ([1]; 66% ethanol 33% Polysorbate 20, Acrylic, room temperature 30 minutes): 3.4
- ΔE ([1]; 66% ethanol 33% Polysorbate 20, Bleached cotton, room temperature 30 minutes): 10.6
- ΔE ([1]; 66% ethanol 33% Polysorbate 20, Diacetate, room temperature 30 minutes): 20.6
- ΔE ([1]; 66% ethanol 33% Polysorbate 20, Nylon 6,6, room temperature 30 minutes): 32.4
- ΔE ([1]; 66% ethanol 33% Polysorbate 20, Polyester, room temperature 30 minutes): 11.5
- ΔE ([1]; 66% ethanol 33% Polysorbate 20, Wool, room temperature 30 minutes): 10.7
- ΔE [1, 4]: 30.37
- ΔE [1, 5]: 38.02
- ΔE [1, 6]: 53.26
- ΔE [1, 7]: 13.80
- ΔE [1, 8]: 64.59
- ΔE [1, 9]: 27.02
- ΔE [1, 10]: 21.85
- ΔE [1, 11]: 28.07
- ΔE [1, 12]: 26.36
- colour coordinate L [3, 13]: 21.23
- colour coordinate a [3, 13]: 7.43
- colour coordinate b [3, 13]: −16.54
- ΔE ([3]; nylon 6,6, versus undyed fabric control): 32.31
- L ([2]; Bleached cotton): 64.7
- a ([2]; Bleached cotton): 2.55
- b ([2]; Bleached cotton): −7.44
- ΔE ([2]; Bleached cotton): 25.98
- L ([2]; Denim): 55.38
- a ([2]; Denim): 2.59
- b ([2]; Denim): −8.78
- ΔE ([2]; Denim): 38.02
- L ([2]; Diacetate): 46.46
- a ([2]; Diacetate): 10.78
- b ([2]; Diacetate): −13.47
- ΔE ([2]; Diacetate): 43.10
- L ([2]; Hemp): 75.81
- a ([2]; Hemp): 1.7
- b ([2]; Hemp): −5.6
- ΔE ([2]; Hemp): 15.97
- L ([2]; Nylon 6,6): 44.17
- a ([2]; Nylon 6,6): 2.55
- b ([2]; Nylon 6,6): −14.56
- ΔE ([2]; Nylon 6,6): 46.42
- L ([2]; Polyester): 67.73
- a ([2]; Polyester): 0.17
- b ([2]; Polyester): 0.03
- ΔE ([2]; Polyester): 21.29
- L ([2]; Silk): 72.02
- a ([2]; Silk): 2.4
- b ([2]; Silk): −2.37
- ΔE ([2]; Silk): 18.38
- L ([2]; Viscose): 62.42
- a ([2]; Viscose): 2.98
- b ([2]; Viscose): −1.89
- ΔE ([2]; Viscose): 25.86
- L ([2]; Wool): 62.08
- a ([2]; Wool): −1.13
- b ([2]; Wool): 1.71
- ΔE ([2]; Wool): 22.14

Structure (SMILES): O=C1NC(c2c[nH]c3ccc(O)cc23)=C/C1=C1\C(=O)Nc2ccccc21 [violacein]
- ΔE [1, 4]: 35.32
- ΔE [1, 5]: 33.65
- ΔE [1, 6]: 54.78
- ΔE [1, 7]: 28.03
- ΔE [1, 8]: 70.93
- ΔE [1, 9]: 19.63
- ΔE [1, 10]: 25.60
- ΔE [1, 11]: 33.31
- ΔE [1, 12]: 28.50
- L ([2]; Bleached cotton): 63.39
- a ([2]; Bleached cotton): 4.95
- b ([2]; Bleached cotton): −5.28
- ΔE ([2]; Bleached cotton): 26.95
- L ([2]; Denim): 60.57
- a ([2]; Denim): 0.77
- b ([2]; Denim): −10.83
- ΔE ([2]; Denim): 33.65
- L ([2]; Diacetate): 46
- a ([2]; Diacetate): 9.04
- b ([2]; Diacetate): −9.93
- ΔE ([2]; Diacetate): 42.18
- L ([2]; Hemp): 70.83
- a ([2]; Hemp): 2.66
- b ([2]; Hemp): −6.04
- ΔE ([2]; Hemp): 20.87
- L ([2]; Nylon 6,6): 42.55
- a ([2]; Nylon 6,6): 5.15
- b ([2]; Nylon 6,6): −15.59
- ΔE ([2]; Nylon 6,6): 48.45
- L ([2]; Polyester): 68.51
- a ([2]; Polyester): 2.89
- b ([2]; Polyester): −0.37
- ΔE ([2]; Polyester): 20.67
- L ([2]; Silk): 72.14
- a ([2]; Silk): 3.83
- b ([2]; Silk): −5.27
- ΔE ([2]; Silk): 19.22
- L ([2]; Viscose): 64.89
- a ([2]; Viscose): −0.95
- b ([2]; Viscose): −2.06
- ΔE ([2]; Viscose): 23.50
- L ([2]; Wool): 64.53
- a ([2]; Wool): 0.76
- b ([2]; Wool): 1.21
- ΔE ([2]; Wool): 19.76
